The entries are a selection whose mix differs from that of the whole data set. At the low end of the ranking, values are background and their order means little.

Protein sequences, listed by entry. Tags and fused reporters are not part of them. Lines headed by an entry give the natural chain unless they say otherwise; changes in a name come on top.
UniProt P41161: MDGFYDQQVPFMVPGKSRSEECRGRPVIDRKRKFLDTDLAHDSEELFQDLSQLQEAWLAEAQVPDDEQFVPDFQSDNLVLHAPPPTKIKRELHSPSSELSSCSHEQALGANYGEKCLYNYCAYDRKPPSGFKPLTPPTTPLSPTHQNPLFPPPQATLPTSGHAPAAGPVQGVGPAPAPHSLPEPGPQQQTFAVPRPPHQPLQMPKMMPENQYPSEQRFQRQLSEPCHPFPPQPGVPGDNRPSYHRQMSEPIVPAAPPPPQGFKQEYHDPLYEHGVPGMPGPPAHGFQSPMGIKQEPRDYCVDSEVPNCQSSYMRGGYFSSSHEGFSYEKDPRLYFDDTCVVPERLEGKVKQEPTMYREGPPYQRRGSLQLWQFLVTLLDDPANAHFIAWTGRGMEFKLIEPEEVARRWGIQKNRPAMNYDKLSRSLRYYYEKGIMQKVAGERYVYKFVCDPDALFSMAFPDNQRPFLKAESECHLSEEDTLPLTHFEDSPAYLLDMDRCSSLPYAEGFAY

The target in the first assay is ETV5 (UniProt P41161). Put plainly: DAPPL (digital affinity profiling via proximity ligation, sequencing). The following applies: 10 mM Tris-HCl pH 7.5, 50 mM NaCl, 1 mM DTT, 4% glycerol, room temperature, 30 min; GST-TFs on glutathione beads, 16-mer random dsDNA library, 0.1% …; high values mean tight binding; double strand, one strand shown; scale: fold enrichment (6-mer frequency, TF over GST control).
Sequence CCCTCT came in with a binding signal of 1.33.
Same read-out and setting: to TAACGT belongs 0.932.
Turning to ACCGCC, the binding signal stood at 1.23.
Regarding AACCGA, the binding signal was 0.953.
Still for that read-out and setting: with AACAGA the figure was 0.948.
Sequence CTCCAC registered a binding signal of 1.42.
Sequence CCACAA registered a binding signal of 1.19.
The same measure, in the same setting: with TTCTGT the figure was 1.26; with GAATGA, 0.85.
Sequence TTTGAT had a binding signal of 1.23.
With TGGATC, the binding signal was 0.98.
Turning to GAAGCC, the binding signal was 1.07.
The same measure, in the same setting: with TCCGCA the figure was 2.24; with CACAAG, 1.13; with TGTCCT, 1.56.
CCAGAA displayed a binding signal of 0.988.
The same measure, in the same setting: to CCTAGG belongs 0.963; to TACGGT, 1.04.
Turning to ACACTA, the binding signal came out at 1.14.
On the same count and under the same terms, to ACTCGG belongs 0.962; to CGTACG, 0.984; to TTAGCC, 0.932.
Take GATAAA: the binding signal was determined as 0.987.
AGTTAA: the binding signal came to 1.1.
Take TGCCAC: the binding signal was found to be 1.14.
For CGCACC, the binding signal was 0.963.
ATTATC came in with a binding signal of 1.26.
For the sequence AAAGGC, the binding signal was 0.958.
With CCCTCA, the binding signal came out at 1.18.
The sequence TCGCGG registered a binding signal of 0.964.
Regarding GTTAGC, the binding signal is 0.946.
In the case of TATAAA, the binding signal was 1.18.
TTGGGC yielded a binding signal of 1.12.
The same measure, in the same setting: with CTAACT the figure was 1.34; with CTCGTC, 1.31.
Sequence ACCTGT had a binding signal of 0.994.
GATTCG gave a binding signal of 0.91.
Turning to AACCCT, the binding signal came to 1.31.
Still for that read-out and setting: to GTAACC belongs 1.05; to TATCCC, 1.64.

The next assay concerns the target T1, ETV3L (UniProt Q6ZN32).
T1 sequence: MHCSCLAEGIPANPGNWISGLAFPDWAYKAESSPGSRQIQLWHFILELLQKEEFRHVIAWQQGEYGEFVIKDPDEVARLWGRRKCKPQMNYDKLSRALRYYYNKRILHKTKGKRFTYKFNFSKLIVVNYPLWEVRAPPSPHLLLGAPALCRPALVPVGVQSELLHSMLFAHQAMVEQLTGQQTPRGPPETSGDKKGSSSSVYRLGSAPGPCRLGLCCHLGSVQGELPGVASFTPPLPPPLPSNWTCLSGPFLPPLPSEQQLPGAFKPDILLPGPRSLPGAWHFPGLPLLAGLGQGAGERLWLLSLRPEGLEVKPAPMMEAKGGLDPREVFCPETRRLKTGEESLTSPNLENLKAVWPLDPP
Described as above. The following applies: 10 mM Tris-HCl pH 7.5, 50 mM NaCl, 1 mM DTT, 4% glycerol, room temperature, 30 min; GST-TFs on glutathione beads, 16-mer random dsDNA library, 0.1% …; high values mean tight binding; double strand, one strand shown; scale: fold enrichment (6-mer frequency, TF over GST control).
As for CCCTCT, the binding signal amounted to 1.3.
In turn, TAACGT yielded a binding signal of 0.97.
On the same count and under the same terms, to AACAGA belongs 0.969; to CTCCAC, 1.45.
With TTCTGT, the binding signal was 1.42.
GAATGA came in with a binding signal of 0.99.
On to TTTGAT, for which the binding signal is 1.28.
In the case of TGGATC, the binding signal was 1.12.
In the case of GAAGCC, the binding signal came out at 0.997.
With TCCGCA, the binding signal was found to be 2.08.
Consider TGTCCT, for which the binding signal turned out to be 1.58.
Sequence CCAGAA displayed a binding signal of 0.986.
The same measure, in the same setting: with TACGGT the figure was 0.981; with ACTCGG, 0.968; with TTAGCC, 0.959.
GATAAA came in with a binding signal of 0.927.
In the case of AGTTAA, the binding signal came out at 0.993.
On to TGCCAC, for which the binding signal stood at 1.28.
Regarding CGCACC, the binding signal stood at 0.947.
AAAGGC yielded a binding signal of 0.967.
Regarding CCCTCA, the binding signal is 1.18.
Turning to TCGCGG, the binding signal was 1.04.
Take GTTAGC: the binding signal was 0.871.
As to TATAAA, the binding signal stood at 1.15.
Take CTCGTC: the binding signal was determined as 1.24.
In turn, ACCTGT came in with a binding signal of 0.96.
For the sequence AACCCT, the binding signal amounted to 1.24.
Same read-out and setting: with GTAACC the figure was 0.984.

Values taken from publication PMC7862700.
